PubChem BioAssay AID743454, Peter MacCallum Cancer Centre, 2014

- Purpose: 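Knock-downs lowering viability or raising caspase 3/7 activity in vorinostat-treated resistant cells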 (primary screen)
- System: human HCT116-VR colon cancer cells, selected for vorinostat resistance
- Reagents: siRNA pool against human genes, 40 nM siRNA pool
- Duration: vorinostat for 24 h, read-out about 72 h after transfection
- Conditions: vorinostat at 2.5 µM final
- Read-out: 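Two measures, CellTiter-Fluor viability and luminescent caspase 3/7 activity, each as fold change against same-plate mock wells, mean of duplicates, then screen-wide robust z-score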
- Scale: viability robust z-score: higher = more viable cells than screen typical; caspase robust z-score: higher = more caspase 3/7 activity than screen typical
- Rule for the call: 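Hits are knock-downs in viability class RV1/RV2 or caspase class CA1/CA2, excluding ones that killed cells in the no-drug cell-count arm; hits then retested with single siRNAs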
In all, the deposit lists about 18,000 reagents; this is a random part of them. Of all reagents, 450 (2.5%) are marked active. 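Single biological run; no consistent viability z cut-off exists, so the class columns, not z-scores, define the calls.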 A number with no mark means an inactive call.

| target | viability hit class | caspase hit class | viability robust z-score | caspase robust z-score |
| --- | --- | --- | --- | --- |
| PABPC1 | no change | no change | -0.96 | 0.26 |
| GUSB | no change | no change | -0.56 | 0.9 |
| GPRIN1 | no change | no change | -0.96 | 0.86 |
| RORC | no change | no change | -0.18 | 0.06 |
| NT5C | no change | no change | 0.18 | 0.34 |
| CYP39A1 | no change | no change | -0.91 | 2.6 |
| SPMIP4 | no change | no change | -3.4 | -1.02 |

Part of the list above, set out differently:
PABPC1
- viability hit class: no change
- caspase hit class: no change
- viability robust z-score: -0.96
- caspase robust z-score: 0.26

GUSB
- viability hit class: no change
- caspase hit class: no change
- viability robust z-score: -0.56
- caspase robust z-score: 0.9

GPRIN1
- viability hit class: no change
- caspase hit class: no change
- viability robust z-score: -0.96
- caspase robust z-score: 0.86

Continued.
| target | viability hit class | caspase hit class | viability robust z-score | caspase robust z-score |
| --- | --- | --- | --- | --- |
| RBMXL2 | no change | no change | 0.99 | 1.08 |
| SH2B3 | no change | no change | 2.26 | 1.75 |
| ZNF768 | no change | no change | 0.48 | -0.5 |
| MYL5 | no change | no change | -0.96 | -0.74 |
| PLEKHH1 | no change | no change | -0.66 | 0.32 |
| KRTCAP3 | no change | no change | 0.74 | -0.23 |
| CREB3L1 | no change | no change | -1.86 | -0.24 |
| CGB3 | no change | no change | 0.12 | -0.8 |
| SLC47A1 | no change | no change | -0.92 | 0.14 |
| GFRA3 | no change | no change | -1.38 | -0.88 |
| AMELY | no change | no change | 1.3 | -0.28 |
| NPY2R | no change | no change | -0.66 | -0.48 |
| CHMP1A | no change | no change | 1.06 | -0.52 |
| ZNF598 | no change | no change | 0.29 | 0.06 |
| CDC42BPG | no change | no change | -0.08 | -1 |
| ST13 | no change | no change | 0.7 | 1.38 |
